The results in this text go back to paper PMC2583255.

By UniProt entry, the sequences of proteins in these tests, tags left out. Residues count along the entry.
UniProt P12319, residues 26-257: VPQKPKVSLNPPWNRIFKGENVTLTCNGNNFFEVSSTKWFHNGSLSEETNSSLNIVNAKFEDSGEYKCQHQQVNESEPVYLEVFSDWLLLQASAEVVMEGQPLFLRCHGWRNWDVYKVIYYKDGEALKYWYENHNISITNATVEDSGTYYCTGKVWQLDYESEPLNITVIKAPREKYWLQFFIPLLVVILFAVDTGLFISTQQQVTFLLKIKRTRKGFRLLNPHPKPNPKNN
UniProt P30273, residues 19-86: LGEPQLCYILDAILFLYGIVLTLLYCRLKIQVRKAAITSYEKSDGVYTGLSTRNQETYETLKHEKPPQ

This assay concerns the target High-affinity IgE receptor (FcεRI) α chain (human (endogenous in LAD2)) (UniProt P12319). Put plainly: co-IP; LAD2-cell lysate (2 mM L-α-phosphatidylcholine, 10 mM CHAPS, 150 mM NaCl, 50 mM Tris-HCl pH 8.0, protease inhibitors), pre-cleared with protein-G sepharose; 1 μg mouse anti-FcεRI-α monoclonal antibody (CRA1) or isotype-matched mouse IgG2a, 3 h at room temperature, protein-G sepharose 1 h, 5 washes with lysis buffer; non-reducing SDS-PAGE, immunoblot with anti-FcεRI-β or anti-FcεRI-γ.

These are yes or no findings as the source states them, for the method shown. Binding seen in cells or lysates may run through a third protein. Some binding calls cover weakened binding; strength is not graded here.

Take “High-affinity IgE receptor (FcεRI) γ chain (from UniProt P30273 19-86)”: the binding entry is reported as “binds”.

B1: High-affinity IgE receptor (FcεRI) β chain (receptor, UniProt Q01362 1-244)
chain: MDTESNRRANLALPQEPSSVPAFEVLEISPQEVSSGRLLKSASSPPLHTWLTVLKKEQEFLGVTQILTAMICLCFGTVVCSVLDISHIEGDIFSSFKAGYPFWGAIFFSISGMLSIISERRNATYLVRGSLGANTASSIAGGTGITILIINLKKSLAYIHIHSCQKFFETKCFMASFSTEIVVMMLFLTILGLGSAVSLTICGAGEELKGNKVPEDRVYEELNIYSATYSELEDPGEMSPPIDL
As for B1, the binding entry is “binds”.
